Holding throughout (assay): EMSA
On the technique in general: In EMSA bound probe runs differently from free probe, usually more slowly.

Amino acid sequences for entries named in this document (tags omitted). A change or cut given only in a name is not applied to a line headed by its entry.
UniProt P0AGE0: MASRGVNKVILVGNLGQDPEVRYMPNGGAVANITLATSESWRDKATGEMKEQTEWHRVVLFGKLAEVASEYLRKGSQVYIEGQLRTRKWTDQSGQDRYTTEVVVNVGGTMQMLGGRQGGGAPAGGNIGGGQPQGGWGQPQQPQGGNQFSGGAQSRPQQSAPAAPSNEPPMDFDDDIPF

For data set [1], the target named is EcoSSB (Escherichia coli) (UniProt P0AGE0). To be noted: after heat treatment, 50% activity left after 15 min at 100 C; EMSA: 20 mM Tris-HCl pH 8.0, 100 mM NaCl, 1 mM EDTA, 25 C, 2% agarose in TAE; recombinant …; label: 5'-fluorescein; single-stranded DNA.
Data set [2] concerns the target T1, PtoSSB (Psychroflexus torquis ATCC 700755 (LMG 21429)) (UniProt K4IS14).
T1 sequence (looked up): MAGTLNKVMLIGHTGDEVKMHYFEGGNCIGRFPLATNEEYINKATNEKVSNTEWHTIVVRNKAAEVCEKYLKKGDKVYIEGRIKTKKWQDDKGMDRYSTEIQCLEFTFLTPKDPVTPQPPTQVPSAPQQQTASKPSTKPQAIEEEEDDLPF
To be noted: EMSA: 20 mM Tris-HCl pH 8.0, 100 mM NaCl, 1 mM EDTA, 25 C, 2% agarose in TAE, recombinant protein, residues 1-151, label: 5'-fluorescein, single-stranded DNA.

In data set [3] the target is T2, PprSSB (Photobacterium profundum (LMG 19446)) (UniProt Q6LM83).
T2 sequence (looked up, limits assumed): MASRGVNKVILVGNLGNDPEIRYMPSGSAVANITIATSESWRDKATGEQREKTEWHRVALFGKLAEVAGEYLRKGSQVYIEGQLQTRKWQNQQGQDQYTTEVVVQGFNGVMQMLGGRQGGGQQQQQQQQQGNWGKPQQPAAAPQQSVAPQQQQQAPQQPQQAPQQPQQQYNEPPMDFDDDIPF
The conditions noted are these: EMSA: 20 mM Tris-HCl pH 8.0, 100 mM NaCl, 1 mM EDTA, 25 C, 2% agarose in TAE, recombinant protein, label: 5'-fluorescein, single-stranded DNA.

Construct, isoform or probe ends are uncertain for at least one entry. At least one verdict was read from the data and is not stated in words by the source. For some assays here: Where a protein sequence is shown, tags need not be part of it.

With “TTTTTTTTTTTTTTTTTTTTTTTTTTTTTTTTTTT [(dT)35]”, in data set [1], the binding result was “binds”.
On to “TTTTTTTTTTTTTTTTTTTTTTTTTTTTTTTTTTTTTTTTTTTTTTTTTTTTTTTTTTTTTTTTTTTTTTTTTTTTTTTTTTTTTTTTTTTTTTTTTTTTTTTTTTTTTTTTTTTTTTTT [(dT)120]”, for which the binding result in data set [2] (complexes I-III) and in data set [3] (complexes I-III) was “binds” throughout.
As to “TTTTTTTTTTTTTTTTTTTTTTTTTTTTTTTTTTTTTTTTTTTTTTTTTTTTTTTTTTTTTTTTTTTTTTTTTTTT [(dT)76 fluorescein]”, the binding result in data set [2] (complexes I and II) is recorded as “binds”; in data set [3] (complexes I and II), “binds”.
